## Screening data, single-dose tests

Protein sequences, listed by entry. Tags and fused reporters are not part of them.
UniProt P9WNZ1, whole entry: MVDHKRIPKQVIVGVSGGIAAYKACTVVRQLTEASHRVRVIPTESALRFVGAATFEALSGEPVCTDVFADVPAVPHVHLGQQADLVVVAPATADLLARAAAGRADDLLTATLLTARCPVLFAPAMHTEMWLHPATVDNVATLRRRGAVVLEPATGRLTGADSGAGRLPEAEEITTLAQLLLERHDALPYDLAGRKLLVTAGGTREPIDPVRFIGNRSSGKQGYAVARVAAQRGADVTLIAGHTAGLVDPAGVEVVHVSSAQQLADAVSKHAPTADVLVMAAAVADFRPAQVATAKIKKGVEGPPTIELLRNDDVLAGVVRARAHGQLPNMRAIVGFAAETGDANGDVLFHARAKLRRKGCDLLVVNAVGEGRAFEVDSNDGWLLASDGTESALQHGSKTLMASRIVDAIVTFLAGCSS
UniProt P9WFT3, whole entry: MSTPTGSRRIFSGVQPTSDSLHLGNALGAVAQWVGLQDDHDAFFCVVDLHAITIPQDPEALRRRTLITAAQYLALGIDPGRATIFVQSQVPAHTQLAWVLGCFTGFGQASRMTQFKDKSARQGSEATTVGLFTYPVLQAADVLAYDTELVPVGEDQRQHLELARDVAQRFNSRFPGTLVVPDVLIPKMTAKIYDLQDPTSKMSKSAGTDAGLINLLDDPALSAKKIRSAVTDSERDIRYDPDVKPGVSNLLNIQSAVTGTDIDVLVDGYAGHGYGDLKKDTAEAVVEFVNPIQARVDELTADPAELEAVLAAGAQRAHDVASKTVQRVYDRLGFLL

Data taken from ChEMBL document CHEMBL3988442, “University of Dundee, Small-Polar-MMV Screening Library” (2021).

Results are given as percent effect. The record does not define 0% and 100%; most values in the screen are far below 50% and negative numbers occur (in some assays of this library far below -100). The compounds are a random part of those screened. Two or more numbers in one place are separate tests of the same structure; such repeats can differ widely. A dash means the value is not listed here; it may have been measured.

CoaBC: 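Enzyme assay of CoaBC with a phosphate dye (Biomol Green) read at 650 nm. Target: Coenzyme A biosynthesis protein CoaBC, Mycobacterium tuberculosis (UniProt P9WNZ1). Tested at 30 µM. Direction is inferred from only a few compounds that gave an IC50; most scored high, so higher reads as stronger inhibition. Most strong results did not repeat in a second test. About 67,000 compounds were tested under these conditions; 0.06% (about 40) showed 50% or more at least once.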
MtTrpRS: 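Tryptophan-tRNA ligase, Mycobacterium tuberculosis (UniProt P9WFT3). Enzyme assay of tryptophanyl-tRNA synthetase; the read-out is not stated. Tested at 10 µM. Higher most likely means stronger inhibition; the record gives no direction and few retests gave an IC50. About 65,000 compounds were tested under these conditions; 0.098% (about 64) showed 50% or more at least once.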

SMILES	CoaBC	MtTrpRS
O=C(Nc1ccnc(OC2CCOC2)c1)c1ccccc1Cl (stereo not given)	2.244	-0.2646
CC(=O)N1CCN(C(=O)c2cccc(OCc3cscn3)c2)CC1	9.474	-3.61
CCC(O)CN1CCN(C(=O)CCSC)CC1 (stereo not given)	2.086	0.08223
Cc1nc2ccccc2n1Cc1cc(C(=O)N(C)C2CCOC2)n[nH]1 (stereo not given)	0.241	-0.06473
O=C(c1ccc[nH]1)N1CCC2(CC1)C(=O)Nc1ccccc12	4.846	1.509
CCS(=O)(=O)N1CCc2onc(CNc3ncccn3)c2C1	3.426	-5.863
CN(CCOc1ccc(Br)cc1)Cc1cscn1	-5.366	-6.233
COc1cccc(CC2CN(C3CC(C)(C)NC(C)(C)C3)CCO2)c1 (stereo not given)	0.7614	0.4519
Cc1cnn(CC2CCCCN2C(=O)c2c(C)noc2C)c1 (stereo not given)	4.563	-0.4125
O=C(NCCc1nc2ccccc2s1)c1coc(CN2CCOCC2)c1	-6.024	-1.001
CN1CCC(CCc2ccnc(NC(=O)c3ccccn3)c2)CC1	-2.628	8.569
O=C(C1CCCOC1)N1CCCc2ccccc21 (stereo not given)	8.779	-1.421
c1csc(CN2CCCN(c3ncnc4[nH]ccc34)CC2)c1	4.087	-1.731
CCN1CCC2(CC1)CC(NC(=O)N(C)C)c1cc(C)ccc12 (stereo not given)	4.442	-0.9444
O=C(C1CCCC1)N1CCC2(CC1)COCCN2CC1CC1	1.693	5.725
O=S1(=O)C[C@@H]2[C@H](C1)N(Cc1cc(Cl)cc(Cl)c1)CCN2CCO	-15.16	-2.252
COc1ccc(CN2CCC3(CC(C(=O)NCC(C)C)=NO3)C2)cc1 (stereo not given)	0	-
COCCC(=O)N1CCC(c2cncc(Oc3cccnc3)n2)CC1	1.211	-
CC(C)c1noc(CCC(=O)N2CCCC(n3ccnc3)C2)n1 (stereo not given)	9.524	-2.673
CC1(c2ncc(CN3CCSCC3)cn2)CCCCO1 (stereo not given)	-10.17	22.13
O=C(CCS(=O)(=O)c1ccccc1)NC1CCOC2(CCOCC2)C1 (stereo not given)	-0.2469	-2.662
Cc1noc(C2(C)CCCN(C(=O)C(C)C)C2)n1 (stereo not given)	6.413	-6.046
CN(C)c1ccc(C(=O)N2C[C@@H](CN3CCCCC3)[C@@H](CO)C2)cc1	2.828	-0.7276
CN(Cc1cccnc1)[C@@H]1CN(Cc2nccn2C)[C@@H]2CCCO[C@H]12	-1.356	-6.472
COc1ccc(CNCc2c(C)nn(C)c2N2CCOCC2)cc1	6.923	2.737
Cc1cc(CN(C)CC2(O)CCCN(CCC3CCCCC3)C2=O)no1 (stereo not given)	8.733	-3.194
N#Cc1ccc(CN(CCF)Cc2cccc(F)c2)cc1	2.675	2.352
COc1ccccc1CNC(=O)N1CCN(Cc2cc(C)on2)CC1	21.36 & 10.82	-4.672
COCCCNC(=O)Nc1ccc(F)c(C(N)=O)c1	-12.33	0.7382
CC(C)Cc1nnc2sc(-c3cc(C(C)C)n[nH]3)nn12	-6.78	0.9488
Cc1cccc(C(=O)N2CCCn3c(CN4CCCCC4)nnc3C2)c1	4.326	-1.744
Cn1ncc2c1NC(=O)CC2c1cc(Cl)ccc1F (stereo not given)	3.165	-3.119
O=C(CCn1cc(Cl)cn1)Nc1ncccn1	10.18	-2.478
O=C(c1cccs1)N1CCC(n2nc(-c3ccco3)ccc2=O)CC1	1.944	0.5853
COc1ccc2c(ccn2CCC(=O)Nc2nc[nH]n2)c1	1.094	2.251
COCCN1CCC2(CC1)CC1(CCN(S(C)(=O)=O)CC1)N(C)C2=O	-0.4878	-0.9166
OC(CN1CCC(c2ccn[nH]2)CC1)c1cccc(C(F)(F)F)c1 (stereo not given)	14.91	-6.088
CCc1c(C(=O)NCC2CCS(=O)(=O)C2)cnn1-c1ccc(C)cc1 (stereo not given)	1.028	3.068
CCc1nc(CN2CC[C@@](O)(CCOC)[C@H](C)C2)cs1	-0.3367	-3.083
CCc1ncnc2c1CCN(Cc1cccs1)CC2	2.903	-3.996
Cc1cc(C)c2nc(CNC3CCNC3=O)cc(O)c2c1 (stereo not given)	-8.423	2.685
Cc1cccc(CN2C[C@@H]3CN(C(=O)c4ccsc4)C[C@@H]3C2=O)c1	10.91	-3.397
Cc1ncsc1CN1C[C@@H]2CCCO[C@@H]2[C@H](Nc2ccccn2)C1	-15.31	4.265
CSC1(CNC(=O)NC(C)c2ccc(F)cc2)CCOCC1 (stereo not given)	-0.6274	-1.814
CCN1CCC2(CC1)CC(NCc1cccs1)c1ccccc1O2 (stereo not given)	6.516	-2.628
CN(C)c1nccc(N(C)Cc2nc3ccccc3n2C)n1	0.9926	8.439
O=C(c1ccoc1)N1C[C@H]2CC[C@@]3(N=C(c4ccccc4)NC3=O)[C@H]2C1	-1.303	-1.302
Cc1cnn(CC2CCCN2C(=O)Cc2cn3ccsc3n2)c1 (stereo not given)	3.421	-6.425
NC(=O)C1CN(C(=O)Nc2ccccc2-c2cccs2)CCO1 (stereo not given)	11.47	0.09717
COC(=O)C1CCN(C(=O)c2cc(Br)ccc2-n2cnnn2)CC1	1.211	-2.467
CCOC(=O)[C@@H]1[C@@H](O)C(=O)N(C)C12CCN(C(=O)OC)CC2	0.1227	-

Repeated from the top, 4 entries:

SMILES,CoaBC,MtTrpRS
O=C(Nc1ccnc(OC2CCOC2)c1)c1ccccc1Cl (stereo not given),2.244,-0.2646
CC(=O)N1CCN(C(=O)c2cccc(OCc3cscn3)c2)CC1,9.474,-3.61
CCC(O)CN1CCN(C(=O)CCSC)CC1 (stereo not given),2.086,0.08223
Cc1nc2ccccc2n1Cc1cc(C(=O)N(C)C2CCOC2)n[nH]1 (stereo not given),0.241,-0.06473